Data taken from publication PMC9079088, “FBXO2 targets glycosylated SUN2 for ubiquitination and degradation to promote ovarian cancer development” (Cell Death & Disease, 2022).
No constants are given. Whether binding was seen depends on the method and setting. In cells and extracts the contact can be indirect. Some results given as binding are weak or reduced against the parent protein; the word gives no strength.

Amino acid sequences for entries named in this document (tags omitted).
UniProt Q9UH99: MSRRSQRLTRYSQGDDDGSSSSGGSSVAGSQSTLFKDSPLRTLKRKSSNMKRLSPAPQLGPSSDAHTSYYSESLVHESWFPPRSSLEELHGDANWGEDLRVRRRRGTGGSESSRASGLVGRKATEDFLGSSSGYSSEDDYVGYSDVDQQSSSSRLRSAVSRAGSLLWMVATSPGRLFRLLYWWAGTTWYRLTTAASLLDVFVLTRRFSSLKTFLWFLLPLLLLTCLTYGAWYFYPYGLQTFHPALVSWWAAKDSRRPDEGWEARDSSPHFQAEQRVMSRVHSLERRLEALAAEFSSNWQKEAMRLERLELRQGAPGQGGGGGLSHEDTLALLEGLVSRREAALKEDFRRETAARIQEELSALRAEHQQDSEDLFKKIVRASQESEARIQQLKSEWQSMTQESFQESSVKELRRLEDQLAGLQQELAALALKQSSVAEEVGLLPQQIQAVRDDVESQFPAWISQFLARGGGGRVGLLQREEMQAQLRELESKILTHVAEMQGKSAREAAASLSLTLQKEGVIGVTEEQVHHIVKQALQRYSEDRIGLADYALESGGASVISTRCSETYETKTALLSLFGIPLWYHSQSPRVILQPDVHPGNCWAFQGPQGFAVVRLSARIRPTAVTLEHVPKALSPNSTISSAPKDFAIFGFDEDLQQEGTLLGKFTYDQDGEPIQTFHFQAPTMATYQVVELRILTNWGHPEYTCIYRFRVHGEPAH

Biological target: SUN2 (endogenous, A2780) (human (endogenous in A2780)) (UniProt Q9UH99)
Assay: co-IP; A2780 cell lysates, MG132 treatment; immunoprecipitation with IgG or anti-SUN2 antibody; immunoblotting

B1: GST-FBXO2 WT (natural protein, human, UniProt Q9UK22 1-296, looked up)
chain: MDGDGDPESVGQPEEASPEEQPEEASAEEERPEDQQEEEAAAAAAYLDELPEPLLLRVLAALPAAELVQACRLVCLRWKELVDGAPLWLLKCQQEGLVPEGGVEEERDHWQQFYFLSKRRRNLLRNPCGEEDLEGWCDVEHGGDGWRVEELPGDSGVEFTHDESVKKYFASSFEWCRKAQVIDLQAEGYWEELLDTTQPAIVVKDWYSGRSDAGCLYELTVKLLSEHENVLAEFSSGQVAVPQDSDGGGWMEISHTFTDYGPGVRFVRFEHGGQDSVYWKGWFGARVTNSSVWVEP
notes: F-box protein FBXO2, human; also called GST tagged FBXO2
- binding: binds

B2: FBXO16 (endogenous, A2780) (protein, UniProt Q8IX29 1-292)
chain: MMAFAPPKNTDGPKMQTKMSTWTPLNHQLLNDRVFEERRALLGKWFDKWTDSQRRRILTGLLERCSLSQQKFCCRKLQEKIPAEALDFTTKLPRVLSLYIFSFLDPRSLCRCAQVCWHWKNLAELDQLWMLKCLRFNWYINFSPTPFEQGIWKKHYIQMVKELHITKPKTPPKDGFVIADVQLVTSNSPEEKQSPLSAFRSSSSLRKKNNSGEKALPPWRSSDKHPTDIIRFNYLDNRDPMETVQQGRRKRNQMTPDFSRQSHDKKNKLQDRTRLRKAQSMMSRRNPFPLCP
- binding: no binding
